Out of some 330,000 compounds screened, about 7,700 (2.3%) were called active. Inconclusive means that the source gave no clear call. Such entries were picked first, then a sample of the others. Calls come from the whole dose curve; as a rule, active = well fitted inhibition curve with a large enough effect; inconclusive = small, poorly fitted or top-dose-only effect, or effect the other way; inactive = flat fitted curve, though single readings scatter. Potencies of inconclusive entries are doubtful fits and often do not repeat.
Assay: qHTS screen for small molecules that inhibit ELG1-dependent DNA repair in human embryonic kidney (HEK293T) cells expressing luciferase-tagged ELG1; note: nearly all actives have a fitted effect of over 55% in size
Settings: HEK293T ELG1-luciferase reporter, luminescence, 16 h, DNA damage induced by 5-fluorouridine; activity change, negative = inhibition: at 46.1 µM (top of the series)
In short: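 Overnight (16 hr) co-exposure of 2,000 cells/well to 5-fluorouridine and compound at 37 °C preceded detection. Luciferase was quantified via ONE-Glo luminescence; loss of signal denotes inhibition.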
% is set by controls: 0 for no effect and ±100 for the full control effect; potency is the fitted concentration of half-maximal effect.

| SMILES | Potency | activity change, negative = inhibition |
| --- | --- | --- |
| COC(=O)C1CCN(S(=O)(=O)CCNC(=O)c2cccc(OC)c2)CC1 | inconclusive: 6.51 µM [activator, partial curve, poor fit] | – |
| CCCCOC(=O)Cn1c(=O)c2c(nc3n2CCCCN3c2ccc(C)cc2)n(C)c1=O | inconclusive: 2.91 µM [inhibitor, single point] | – |
| C/C(=N/Nc1nc(C)cc(C)n1)c1ccc(Br)cc1 | inconclusive: 35.5 µM [inhibitor, single point] | – |
| C=CCNS(=O)(=O)c1cc2c3c(c1)CCN3C(=O)CC2 | inconclusive: 29.1 µM [activator, partial curve, poor fit] | – |
| C/C(=N\NC(=O)Cc1ccc(Cl)cc1)c1cccnc1 | – | inactive: 6.39% |
| Cc1ccc(-c2csc(=S)n2CC(=O)OCC(=O)NC(C)C(C)C)cc1 (stereo not drawn) | – | inactive: -6.88% |
| O=C(CSc1ccc2ccccc2n1)NCCCN1CCCC1=O | inconclusive: 16.4 µM [activator, partial curve, poor fit] | – |
| CCC(=O)c1c[nH]c(C(=O)NCc2cccnc2)c1 | – | inactive: 24.8% |
| O=C(CC12CC3CC(CC(C3)C1)C2)Nc1ccc2c(c1)COC2=O | inconclusive: 25.9 µM [activator, single point] | – |
| Cc1ccc(C(=O)Nc2ccc3c(c2)OCO3)cc1S(=O)(=O)N1CCOCC1 | inconclusive: 14.6 µM [activator, partial curve] | – |
| CCOC(=O)c1c(NC(=O)c2cc(C)oc2C)sc(C(=O)Nc2ccc(Cl)cc2)c1C | inconclusive: 20.6 µM [activator, partial curve] | – |
| COc1ccc(NC(=O)N2CCN(S(C)(=O)=O)CC2)cc1 | – | inactive: 16.4% |
| COc1ccccc1COn1c(=O)c(-c2ccco2)[n+]([O-])c2ccccc21 | inconclusive: 32.6 µM [inhibitor, single point] | – |
| C=CCn1c(SCc2ccc(C(=O)O)cc2)nc2sc(C)c(C)c2c1=O | inconclusive: 29.1 µM [activator, single point] | – |
| Cc1ccc(C(C)C)c(OCc2nn(CC(=O)c3ccc(Cl)cc3)c3[n+]2CCCCC3)c1 | inconclusive: 16.4 µM [inhibitor, single point] | – |
| C/C=C/C=C/C(=O)Nc1nccs1 | inconclusive: 23.1 µM [activator, single point] | – |
| CCOC(=O)c1c(NC(=O)C2(C)Cc3ccccc3C(=O)O2)sc2c1CCCC2 (stereo not drawn) | inconclusive: 29.1 µM [inhibitor, single point] | – |
| CC(=O)c1ccc(NC(=S)N2CCCC(CO)C2)cc1 (stereo not drawn) | inconclusive: 10.3 µM [activator, partial curve] | – |
| Cc1cc(-c2csc3nc[nH]c(=S)c23)cc(C)c1C | – | inactive: -6.43% |
| C/C(=N\Nc1ccc([N+](=O)[O-])cc1)c1ccc(N2CCOCC2)cc1 | inconclusive: 23.1 µM [activator, partial curve, poor fit] | – |
| N#Cc1c(N2CCN(C(=O)c3ccccc3)CC2)nc(-c2ccccc2)c2c1CCCC2 | inconclusive: 29.1 µM [inhibitor, single point] | – |
| CC(=O)Nc1cc([N+](=O)[O-])ccc1N1CCOCC1 | – | inactive: 0% |
| CC(=O)c1cccc(NC(=S)Nc2cccc3ccccc23)c1 | inconclusive: 29.1 µM [activator, single point] | – |

Another view of part of the listing above.
SMILES | Potency | activity change, negative = inhibition
CC(=O)c1ccc(NC(=S)N2CCCC(CO)C2)cc1 (stereo not drawn) | inconclusive: 10.3 µM [activator, partial curve] | –
Cc1cc(-c2csc3nc[nH]c(=S)c23)cc(C)c1C | – | inactive: -6.43%
C/C(=N\Nc1ccc([N+](=O)[O-])cc1)c1ccc(N2CCOCC2)cc1 | inconclusive: 23.1 µM [activator, partial curve, poor fit] | –
N#Cc1c(N2CCN(C(=O)c3ccccc3)CC2)nc(-c2ccccc2)c2c1CCCC2 | inconclusive: 29.1 µM [inhibitor, single point] | –
CC(=O)Nc1cc([N+](=O)[O-])ccc1N1CCOCC1 | – | inactive: 0%

Following part:

| SMILES | Potency | activity change, negative = inhibition |
| --- | --- | --- |
| CC1CCc2c(sc(NC(=O)CSc3nc(N)cc(=O)[nH]3)c2C(N)=O)C1 (stereo not drawn) | – | inactive: -8.59% |
| COc1ccc(-c2nc3c(c(SCC(=O)N4CCOCC4)n2)Cc2c(CO)cnc(C)c2O3)cc1 | active: 1.3 µM | – |
| Cc1cc(C(=O)OCC(=O)N2CC(=O)Nc3ccccc32)c(C)n1-c1ccc(F)cc1 | inconclusive: 20.6 µM [inhibitor, single point] | – |
| CCOc1ccccc1NC(=S)N1CCN(c2nc(-c3cccc(OC)c3)cs2)CC1 | inconclusive: 29.1 µM [inhibitor, single point] | – |
| CN(C)c1nc(N)nc(CSc2nnnn2-c2cccc3ccccc23)n1 | inconclusive: 10.3 µM [inhibitor, single point] | – |
| COC(=O)C1=CN(c2ccc(F)cc2)C=C(C(=O)OC)C1c1ccc([N+](=O)[O-])cc1 | – | inactive: -13.2% |
| COc1ccc(Nc2nc(N)nc(CCl)n2)cc1 | inconclusive: 20.6 µM [activator, single point] | – |
| COc1ccc(-c2nn(-c3ccccc3)cc2C(=O)Nc2nccs2)cc1OC | active: 3.26 µM | – |
| COc1ccccc1NC(=O)Cn1ncc2c1-c1ccccc1OC2 | – | inactive: 1.72% |
| CCOc1cc(CNc2ccc(S(N)(=O)=O)cc2)ccc1OCC(=O)NC(C)(C)C | inconclusive: 7.3 µM [inhibitor, partial curve] | – |
| O=C(N/N=C/c1cccc(OC(=O)c2ccco2)c1)c1ccc(F)cc1 | inconclusive: 9.2 µM [activator, partial curve] | – |
| CCOC(=O)N/N=C/C=C/c1ccccc1 | inconclusive: 14.6 µM [activator, partial curve] | – |
| O=C1C=C(c2cccc3c2sc2ccccc23)C[C@@H](c2ccc(F)cc2)C1 | active: 13 µM | – |
| CC(=O)c1ccc(NC(=S)Nc2cccc3ccccc23)cc1 | inconclusive: 18.3 µM [activator, single point] | – |
| CCOC(=O)c1[nH]c2ccc(Br)cc2c1NC(=O)CCN1CCN(C(=O)OCC)CC1 | inconclusive: 9.2 µM [inhibitor, single point] | – |
| O=C1N=C(N2CCOCC2)S/C1=C/c1cc2c(cc1[N+](=O)[O-])OCO2 | inconclusive: 7.3 µM [activator, partial curve] | – |
| O=C(NCc1ccco1)C1c2ccccc2Oc2ccccc21 | – | inactive: 1.88% |
| CCOC(=O)c1[nH]c(C)c(C(=O)/C=C/c2ccc(C(=O)O)cc2)c1C | – | inactive: -4.33% |
| Cc1ccc(C(=O)Nc2ncc(C)s2)o1 | inconclusive: 8.2 µM [activator, partial curve] | – |
| COc1cc(Br)c(C2C(C#N)=C(N)Oc3n[nH]c(-c4cccnc4)c32)cc1OC (stereo not drawn) | – | inactive: -0.126% |
| NC(=O)c1cccc(C(N)=O)n1 | inconclusive: 18.3 µM [activator, partial curve, poor fit] | – |
| COc1cc(OC)cc(C(=O)NC(C)CCc2ccccc2)c1 (stereo not drawn) | inconclusive: 29.1 µM [inhibitor, single point] | – |
| CCCCn1cnc2c(c(-c3ccccc3)c(-c3ccccc3)n2Cc2ccco2)c1=N | inconclusive: 8.2 µM [inhibitor, single point] | – |

| SMILES | Potency | activity change, negative = inhibition |
| --- | --- | --- |
| Cn1c(C(=O)NCCCN2CCOCC2)cc2c(=O)n(C)c3ccccc3c21 | inconclusive: 23.1 µM [activator, single point] | – |
| Cc1ccc(NC(=O)C2CC(=O)N(c3ccc4c(c3)OCCO4)C2)cc1S(=O)(=O)N1CCCCCC1 (stereo not drawn) | inconclusive: 20.6 µM [inhibitor, partial curve, poor fit] | – |
| COCCCN1C(=O)C(=O)/C(=C(/O)c2ccc(S(=O)(=O)N3CCOCC3)cc2)C1c1cccc(Cl)c1 (stereo not drawn) | inconclusive: 14.6 µM [activator, partial curve, poor fit] | – |
| Cc1cc(/C=C(\C#N)C(N)=O)c(C)n1-c1ccc(N2CCOCC2)c([N+](=O)[O-])c1 | active: 23.1 µM | – |
| CCc1nonc1NC(=O)c1oc2cc(C)c(C)cc2c1C | inconclusive: 9.2 µM [activator, partial curve] | – |
| CC(Sc1ccccc1)C(=O)NNC(=O)c1ccncc1 (stereo not drawn) | – | inactive: 10.9% |
| O=C(C1CCC(CNc2c(N3CCCCC3)c(=O)c2=O)CC1)N1CCc2ccccc2C1 (stereo not drawn) | inconclusive: 16.4 µM [inhibitor, partial curve] | – |
| O=C(NC(=S)N1CCN(c2ccc(O)cc2)CC1)c1ccco1 | – | inactive: -6.51% |
| COc1ccccc1C(=O)NNC(=O)c1ccccc1F | inconclusive: 14.6 µM [activator, partial curve] | – |
| O=C(NC(=S)Nc1ccc(NC(=O)c2cccs2)cc1)c1ccco1 | inconclusive: 13 µM [inhibitor, partial curve] | – |
| Cc1nn(-c2ccccc2)c(N2CCCC2)c1/C=N/NC(=O)c1cc(-c2ccccc2)nc2ccccc12 | active: 3.66 µM | – |
| CCCNC(=O)c1nn2c(C(F)(F)F)cc(-c3ccccc3)nc2c1Br | – | inactive: -11.6% |
| C/C(=N\NC(=O)c1ccc2ccccc2c1)c1cccs1 | inconclusive: 5.8 µM [activator, partial curve] | – |
| CC(=O)c1ccc(NC(=O)c2ccc3nc(-c4ccco4)c(-c4ccco4)nc3c2)cc1 | inconclusive: 18.4 µM [inhibitor, partial curve] | – |
| Cc1cccc(NC(=O)c2ccc3c(c2)CCN3S(C)(=O)=O)c1 | inconclusive: 1.83 µM [activator, full curve] | – |
| CCOC(=O)C1CCN(c2ccc(Cl)nn2)CC1 | inconclusive: 0.651 µM [inhibitor, single point] | – |
| COc1ccc(/C=N/NC(=O)c2cc(-c3cccnc3)nc3ccccc23)c(OC)c1 | – | inactive: 3.67% |
| Cc1ccc(NC(=O)CN(C)C(=O)c2cc(-c3cccs3)nn2-c2ccccc2)cc1 | inconclusive: 20.6 µM [inhibitor, partial curve, poor fit] | – |
| O=C(CCc1ccccc1)NNC(=O)Nc1ccc(Br)cc1 | inconclusive: 29.1 µM [activator, single point] | – |
| COc1ccc(Br)cc1C(=O)NC(=S)Nc1ccc2[nH]c(=O)[nH]c2c1 | inconclusive: 29.1 µM [activator, single point] | – |
| C/C(CC(=O)Nc1cc(C)ccn1)=N\NC(=O)c1ccccc1C | inconclusive: 13 µM [activator, partial curve, poor fit] | – |
| COC(=O)c1cc2ccsc2n1Cc1ccccc1F | inconclusive: 16.4 µM [activator, partial curve, poor fit] | – |

Reference: PubChem BioAssay AID504467 (National Center for Advancing Translational Sciences (NCATS), 2011)
